Values from PubChem BioAssay AID1259424 (University of Nebraska Medical Center, 2018).

- Screen: 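Seek colon cancer survival genes behaving like KSR1, using a six-gene signature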 (primary screen)
- System: human HCT116 colon cancer cells
- Reagent: siRNA pool against human genes, 50 nM
- Read-out: 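Six signature mRNAs by branched-DNA multiplex assay, scaled to two housekeeping genes and non-targeting median, log2; matched to mean KSR1 knockdown profile by Pearson correlation and euclidean distance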
- Reading the numbers: mean correlation with KSR1 profile and KSR1 correlation: higher = expression change more like KSR1 knockdown; mean distance from KSR1 profile: higher = expression change less like KSR1 knockdown
Here is a random part of about 14,000 reagents tested. 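Higher correlation or smaller distance means closer resemblance to KSR1 loss; control wells, including KSR1 knockdowns, recur on many plates.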 The record does not give: the time to read-out.

| gene symbol | mean correlation with KSR1 profile | mean distance from KSR1 profile | KSR1 correlation, replicate 1 | KSR1 correlation, replicate 2 | KSR1 correlation, replicate 3 |
| --- | --- | --- | --- | --- | --- |
| IPO7 | -0.491 | 1.99 | -0.655 | -0.456 | -0.348 |
| PKP1 | 0.0918 | 2.29 | 0.284 | 0.128 | 0.0562 |
| ICE1 | -0.38 | 2.58 | -0.394 | -0.576 | -0.231 |
| NANOG | 0.00685 | 2.8 | -0.225 | 0.63 | -0.0915 |
| SLC35F6 | -0.674 | 1.83 | -0.389 | -0.581 | -0.824 |
| IFIH1 | -0.517 | 1.98 | -0.512 | -0.521 | -0.297 |
| FAM110D | 0.235 | 1.78 | 0.297 | 0.444 | 0.0212 |
| TNFSF10 | 0.661 | 1.59 | 0.728 | 0.485 | 0.689 |
| DHRS11 | -0.187 | 1.62 | -0.218 | -0.208 | -0.238 |
| SACM1L | -0.706 | 2.41 | -0.643 | -0.775 | -0.608 |
| GRM2 | 0.81 | 2.24 | 0.787 | 0.844 | 0.722 |
| ZCCHC4 | -0.73 | 4.57 | -0.694 | -0.17 | -0.162 |
| DRD2 | 0.614 | 3.06 | 0.36 | 0.526 | 0.471 |
| TMEFF1 | -0.503 | 1.56 | -0.384 | -0.717 | -0.352 |
| QTMAN | 0.43 | 1.82 | 0.697 | 0.804 | -0.0798 |
| EFR3B | -0.416 | 3.23 | -0.195 | -0.46 | -0.408 |
| POLR2J | -0.0376 | 1.73 | 0.374 | 0.268 | -0.575 |
| STON2 | 0.342 | 2.76 | 0.192 | 0.436 | 0.133 |
| BPESC1 | -0.386 | 4.04 | -0.436 | -0.107 | -0.271 |
| PHKA1 | 0.611 | 1.69 | 0.58 | 0.676 | 0.42 |

Not a retest: an excerpt of the list.
| gene symbol | mean correlation with KSR1 profile | mean distance from KSR1 profile | KSR1 correlation, replicate 1 | KSR1 correlation, replicate 2 | KSR1 correlation, replicate 3 |
| --- | --- | --- | --- | --- | --- |
| DHRS11 | -0.187 | 1.62 | -0.218 | -0.208 | -0.238 |
| SACM1L | -0.706 | 2.41 | -0.643 | -0.775 | -0.608 |
| GRM2 | 0.81 | 2.24 | 0.787 | 0.844 | 0.722 |

Additional records follow.
| gene symbol | mean correlation with KSR1 profile | mean distance from KSR1 profile | KSR1 correlation, replicate 1 | KSR1 correlation, replicate 2 | KSR1 correlation, replicate 3 |
| --- | --- | --- | --- | --- | --- |
| KCNH3 | 0.299 | 2.26 | 0.521 | 0.148 | 0.0512 |
| PTCH2 | -0.457 | 2.29 | -0.343 | -0.433 | -0.438 |
| MCOLN3 | 0.477 | 0.932 | 0.533 | 0.393 | 0.461 |
| PMP2 | 0.15 | 2.23 | 0.0729 | 0.0452 | 0.0878 |
| PMS2 | 0.147 | 1.58 | -0.00285 | 0.299 | 0.136 |
| IFITM1 | -0.126 | 3.97 | -0.0297 | -0.149 | -0.42 |
| ANXA8L1 | -0.0304 | 2.01 | -0.508 | -0.291 | 0.27 |
| SLC39A6 | 0.0982 | 1.81 | 0.193 | 0.0837 | -0.0411 |
| BTN3A1 | 0.118 | 2.61 | -0.0113 | 0.0525 | 0.261 |
| KCNA6 | -0.327 | 3.1 | -0.261 | -0.31 | -0.301 |
| DEFB1 | -0.42 | 3.22 | -0.398 | -0.46 | -0.592 |
| ADGRE2 | 0.307 | 1.21 | 0.046 | 0.541 | 0.323 |
| SMPD4 | -0.44 | 2.03 | -0.435 | -0.137 | -0.29 |
| SOBP | 0.279 | 1.92 | 0.298 | 0.184 | 0.26 |
